Laboratory results from PubChem BioAssay AID2685 (National Center for Advancing Translational Sciences (NCATS), 2010).
Out of some 320,000 compounds screened, about 2,100 (0.66%) were called active. Inconclusive results, whose numbers are uncertain, are shown with a selection of clear calls. Calls follow the shape of the dose curve; as a rule, active = well fitted inhibition curve with a large enough effect in the signal ratio, with a control signal flat (not every such curve was filed as active); inconclusive = small, poorly fitted or top-dose-only effect, or effect the other way, or a change in a side signal; inactive = flat fitted curve, though single readings scatter; the % refers to the signal ratio. A potency beside an inconclusive call is a rough fit, not a confirmed value.

Assay: qHTS Assay for Lipid Storage Modulators in Drosophila S3 Cells
Conditions: BODIPY lipid droplet fluorescence, 18-24 h, cells fed with added oleic acid; lipid storage change, negative = inhibition: at 46.1 µM (top of the series) unless noted
Outline: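 Laser-scanning cytometry quantifies lipid droplet accumulation (500–530 nm total intensity; droplet/cell object ratio) in oleic acid-fed (400 uM added) Drosophila S3 cells treated with a concentration series. 20 uM Triacsin C defined 100% inhibition.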
% is scaled to controls: 0 for no effect and ±100 for the full control effect; potency is read from the fitted curve at half-maximal effect.

SMILES | Potency | lipid storage change, negative = inhibition
CCOC(=O)C1(Cc2ccccc2C(F)(F)F)CCN(CCCn2cccn2)CC1 | inconclusive: 0.164 µM [falling, full curve] | 
CC(C)c1ccc(C2(C)NC(=O)N(CC(=O)N3CCN(C(=O)c4cccs4)CC3)C2=O)cc1 (stereo not given) | inconclusive: 6.51 µM [falling, single point] | 
COc1cccc(/C=N/NC(=O)CCn2c3ccccc3c3ccccc32)c1 |  | inconclusive: -15.2%
S=C(/N=c1/sccn1Cc1ccccc1)NC1CC1 |  | inconclusive: -6.7%
CN(C)/C=N/c1nc2ccc3c(c2s1)CCCC3 | inconclusive: 0.651 µM [activator, full curve, poor fit] | 
Cc1ccc(NC(=O)CCC(=O)NNC(=O)NC23CC4CC(CC(C4)C2)C3)cc1C |  | inconclusive: -16.6%
CC1CC(C)(C)NC(=S)N1CCC(=O)NCc1ccc(Cl)cc1 (stereo not given) |  | inconclusive: 22%
NC(=O)c1ccccc1NC(=O)CCN1C(=O)c2ccccc2C1=O |  | inconclusive: -26.1%
O=C(COC(=O)c1ccc(Br)c(S(=O)(=O)N2CCOCC2)c1)NCC1CCCO1 (stereo not given) | active: 0.58 µM | 
CCOC(=O)N1CCN(C(=O)CCN2C(=O)/C(=C\c3cccc(OC)c3)SC2=S)CC1 | inconclusive: 5.8 µM [activator, single point] | 
CCc1nnc(NC(=O)c2ccc(COc3ccccc3C)o2)s1 |  | inconclusive: 107%
COc1ccc(CNC(=O)c2c[nH]c3c(OC)cc(OC)cc3c2=O)cc1 | inconclusive: 29.1 µM [falling, single point] | 
COc1ccc(-c2csc(NC(=O)CN3C(=O)NC4(CCCC4)C3=O)n2)c(OC)c1 | active: 6.51 µM | 
Cc1ccccc1NC(=O)C(C)OC(=O)c1ccccc1C(=O)N(C)c1ccccc1 (stereo not given) | inconclusive: 2.91 µM [activator, partial curve] | 
COc1cc(C2Nc3c(F)cccc3C3C=CCC32)cc(Br)c1OC (stereo not given) |  | inconclusive: -54.1% [cytotoxic] [at 0.369 µM]
O=C(O)c1ccc(N2CCc3ccccc32)c([N+](=O)[O-])c1 |  | inconclusive: -5.3%
Cn1c(=O)n(Cc2ccccc2Cl)c(=O)c2c1[nH]c(=S)n2C |  | inconclusive: -31.4%
Fc1ccc(OCc2nc(-c3ccc(Br)o3)no2)c(F)c1 |  | inconclusive: -2.85% [at 9.22 µM]
O=C(Nc1cc(Cl)cc(Cl)c1)N1CCCN(Cc2ccccc2)CC1 |  | inconclusive: 11%
Cc1nc(N/N=C\c2ccc3c(c2)OCO3)sc1C |  | inconclusive: -13.5%
COc1ccc(NC(=O)C2CCC(C(C)(C)C)CC2)cc1S(=O)(=O)N1CCCCC1 (stereo not given) | inconclusive: 4.11 µM [falling, partial curve] | 
COc1ccc(-n2c(C)c(C)c3c(NCCCO)ncnc32)cc1 | inconclusive: 13 µM [activator, partial curve] | 
CCOC(=O)c1ccc(NC(=O)c2cc(=O)[nH]c3ccccc23)cc1 |  | inconclusive: -35.8% [cytotoxic] [at 0.369 µM]
CC(C)(Oc1ccc(Cl)cc1)C(=O)Nc1ccc2oc(-c3ccncc3)nc2c1 | inconclusive: 1.84 µM [activator, partial curve] | 
NC(=O)CC(NC(=O)Cc1cccc2ccccc12)c1ccc(NC2CC3CCC2C3)c([N+](=O)[O-])c1 (stereo not given) |  | inconclusive: -9.41%

SMILES | Potency | lipid storage change, negative = inhibition
O=C(c1cc2ccccc2oc1=O)N(Cc1ccc(F)cc1)C1CCS(=O)(=O)C1 (stereo not given) |  | inconclusive: -9.63%
Cn1c2c(c(=O)n(C)c1=O)C(c1ccc(Br)cc1)C(C#N)=C(N)N2 (stereo not given) | inconclusive: 29.1 µM [activator, partial curve, poor fit] | 
COc1cc2[nH]c(=O)n(CCCCCC(=O)NCCCN3CCOCC3)c(=O)c2cc1OC | inconclusive: 6.51 µM [falling, single point] | 
COc1ccc(-c2nnc(SCC(=O)N3CCCC3)o2)c(OC)c1 |  | inconclusive: -67.1%
COc1ccc(N(C)S(=O)(=O)c2cccc(C(=O)NC3CCCC(C)C3C)c2)cc1 (stereo not given) |  | inconclusive
CCCc1cc(=O)oc2cc(C)cc(OCC(=O)NCCN3CCOCC3)c12 | inconclusive: 1.84 µM [activator, single point] | 
Cc1cccc2sc(NC(=O)CSc3cn[nH]n3)nc12 |  | inconclusive: 181%
CCN(CC)C(=O)c1oc2ccc(S(=O)(=O)N3CC(C)CC(C)C3)cc2c1C (stereo not given) | active: 0.58 µM | 
CCOC(=O)c1cnc(-n2nc(C)cc2C)nc1NNc1nc(C)cc(C)n1 | inconclusive: 29.1 µM [cytotoxic, single point] | 
CCN(CC)c1ncc(C)c(=O)[nH]1 |  | inconclusive: -2.27%
CC1=C(C(=O)Nc2ccccc2C(=O)NCCCOC(C)C)SCCO1 |  | inconclusive: -4.52%
COCC1CCN(C(=O)c2cc(COc3ccc(-n4cncn4)cc3)on2)CC1 |  | inconclusive: -9.82%
COc1ccc(COCCN2CCN(S(=O)(=O)c3ccccc3)CCC2=O)cc1 |  | inconclusive: 0.417%
O=C(CSc1nnc2n(C3CCCCC3)c(=O)c3ccccc3n12)OC1CCCCC1 |  | inconclusive: 78.5%
CCc1ccc(-c2cc(C(=O)Nc3ccc(S(=O)(=O)NC(C)=O)cc3)c3ccccc3n2)cc1 |  | inconclusive: 7.86%
O=C(COC(=O)C12CC3CC(CC(O)(C3)C1)C2)NC(=O)NCc1ccco1 | inconclusive: 3.66 µM [falling, single point] | 
COc1ccc(/C(C)=N/NC(=O)c2ccc3nc[nH]c3c2)cc1 |  | inconclusive: 54.9%
Cn1c(CCNC(=O)c2ccc(F)cc2)nc2ccccc21 |  | inconclusive: -1.42%
CCC(=O)Nc1ccc2c(c1)C(=O)N(C)C2=O |  | inconclusive: -16.5%
CC(C)(C)N1C(=O)c2ccccc2NC(=O)N1Cc1ccc(Br)cc1 |  | inconclusive: 131%
O=C(OC(C(=O)NCc1ccccc1)c1ccccc1)c1ccco1 (stereo not given) | inconclusive: 20.6 µM [falling, single point] | 
O=C(NCCNc1ccccc1[N+](=O)[O-])c1cc(F)c(F)cc1Cl |  | inconclusive: -58.9%
COc1ccc(-c2cc(C)no2)cc1S(=O)(=O)NCC(C)c1ccccc1 (stereo not given) |  | inconclusive: -13.6%
COc1ccc(C(=O)Nc2ccc(S(=O)(=O)N3CCOCC3)cc2)cc1[N+](=O)[O-] | inconclusive: 25.9 µM [falling, single point] | 
O=C(NCCc1ccccc1)C1CCCN1C(=O)Nc1ccc(F)cc1 (stereo not given) |  | inactive: 7.13%

SMILES | Potency | lipid storage change, negative = inhibition
Cn1cc([N+](=O)[O-])c(C(=O)NC2CCCCCCC2)n1 |  | inconclusive: -71%
CCN(CC(=O)Nc1c(F)cccc1F)C(=O)c1ccc(C2SCCS2)cc1 |  | inconclusive: 42.5%
COc1ccc(-c2nc3nc(C)cc(Nc4cccc(C(F)(F)F)c4)n3n2)cc1 |  | inconclusive: 27.5%
Cc1ccc(-c2nc(COC(=O)c3c(C)noc3C)cs2)cc1 | inconclusive: 0.092 µM [falling, full curve, poor fit] | 
Cn1c(SCC(=O)Nc2ccc(N3CCOCC3)cc2)nnc1C(F)(F)F |  | inconclusive: 9.83%
Cc1ccc(N2CCN(C(=O)C3CCC(=O)N(Cc4ccc(Cl)cc4)C3)CC2)c(C)c1 (stereo not given) | inconclusive: 29.1 µM [falling, single point] | 
O=C(Nc1scc(-c2ccccc2)c1C(=O)O)c1ccccc1F |  | inconclusive: 173%
O=c1[nH][nH]c2cc(=O)n(-c3cccc(C(F)(F)F)c3)nc12 |  | inconclusive: -13.5%
CCc1ccc(C(=O)Nc2cccc(-c3nn[nH]n3)c2)s1 |  | inconclusive: -20.8%
CC(=O)N(c1ccc(C)cc1)c1nc(C)cc(C)c1C#N |  | inconclusive: 9.06%
O=C(NCCCN1CCCCC1)c1ccc2c(=O)n(CCc3ccccc3)c(=O)[nH]c2c1 |  | inconclusive: 18.1%
Cc1ccc(N(C)C(=O)C2CCCN2S(=O)(=O)c2ccc3c(c2)n(C)c(=O)c(=O)n3C)cc1 (stereo not given) |  | inconclusive: -23.5%
CCCOC(=O)C[N+](C)(C)CCOC1CC2CCC1(C)C2(C)C (stereo not given) |  | inconclusive: 37.5%
Cc1cc(C(=O)NC2CC(C)(C)Cc3c2cnn3-c2cccc(F)c2)nn1C (stereo not given) |  | inconclusive: -9.85%
COc1ccc(C(=O)NCCNC(=O)c2cc(OCC(F)(F)F)ccc2OCC(F)(F)F)cc1 | inconclusive: 0.651 µM [activator, full curve, poor fit] | 
C/C(=N\NC(=O)C(O)c1ccccc1)c1ccc(Cl)cc1 (stereo not given) | inconclusive: 29.1 µM [falling, partial curve, poor fit] | 
CC(/C=N/n1c(COc2ccccc2)n[nH]c1=S)=C\c1ccco1 |  | inconclusive: -12.1%
CN(C(=O)COc1ccccc1C(=O)NCc1ccccc1)C1CCS(=O)(=O)C1 (stereo not given) |  | inconclusive
CC(=O)c1coc2c1cc(O)c1ccccc12 |  | inconclusive: 4.03%
COc1ccc(CNC(=O)OCCN2CCN(S(=O)(=O)c3ccc(C)cc3)CCC2=O)cc1 |  | inactive: 1.09%
CCN(C(=O)COC(=O)CCOc1cccc(C)c1)c1c(N)n(Cc2ccccc2)c(=O)[nH]c1=O |  | inconclusive: 16.8%
Cn1nnnc1Sc1ncnc2scc(-c3cccs3)c12 |  | inconclusive: 12.8%
CCOC(=O)Cc1nnn(CC(=O)OCC)n1 | inconclusive: 6.51 µM [activator, single point] | 
C=CCn1c(Cc2cccs2)nnc1SCC(=O)Nc1ccc(C(=O)OCC)cc1 | inconclusive: 8.2 µM [rising, partial curve] | 
O=C(O)c1ccc(Cl)c(NC(=O)C2CCCN2S(=O)(=O)c2cccc3nsnc23)c1 (stereo not given) | inconclusive: 7.31 µM [falling, partial curve] | 

Some of these compounds in order of length of the SMILES, rising.
SMILES | Potency | lipid storage change, negative = inhibition
CCOC(=O)Cc1nnn(CC(=O)OCC)n1 | inconclusive: 6.51 µM [activator, single point] | 
Cn1nnnc1Sc1ncnc2scc(-c3cccs3)c12 |  | inconclusive: 12.8%
Fc1ccc(OCc2nc(-c3ccc(Br)o3)no2)c(F)c1 |  | inconclusive: -2.85% [at 9.22 µM]
CCc1ccc(C(=O)Nc2cccc(-c3nn[nH]n3)c2)s1 |  | inconclusive: -20.8%
COc1ccc(-n2c(C)c(C)c3c(NCCCO)ncnc32)cc1 | inconclusive: 13 µM [activator, partial curve] | 
CC1CC(C)(C)NC(=S)N1CCC(=O)NCc1ccc(Cl)cc1 (stereo not given) |  | inconclusive: 22%
CC1=C(C(=O)Nc2ccccc2C(=O)NCCCOC(C)C)SCCO1 |  | inconclusive: -4.52%
O=C(O)c1ccc(N2CCc3ccccc32)c([N+](=O)[O-])c1 |  | inconclusive: -5.3%
CCOC(=O)c1ccc(NC(=O)c2cc(=O)[nH]c3ccccc23)cc1 |  | inconclusive: -35.8% [cytotoxic] [at 0.369 µM]
CCN(CC(=O)Nc1c(F)cccc1F)C(=O)c1ccc(C2SCCS2)cc1 |  | inconclusive: 42.5%
COCC1CCN(C(=O)c2cc(COc3ccc(-n4cncn4)cc3)on2)CC1 |  | inconclusive: -9.82%
Cn1c2c(c(=O)n(C)c1=O)C(c1ccc(Br)cc1)C(C#N)=C(N)N2 (stereo not given) | inconclusive: 29.1 µM [activator, partial curve, poor fit] | 
O=C(COC(=O)c1ccc(Br)c(S(=O)(=O)N2CCOCC2)c1)NCC1CCCO1 (stereo not given) | active: 0.58 µM | 
Cc1ccc(NC(=O)CCC(=O)NNC(=O)NC23CC4CC(CC(C4)C2)C3)cc1C |  | inconclusive: -16.6%
O=C(NCCCN1CCCCC1)c1ccc2c(=O)n(CCc3ccccc3)c(=O)[nH]c2c1 |  | inconclusive: 18.1%
COc1ccc(CNC(=O)OCCN2CCN(S(=O)(=O)c3ccc(C)cc3)CCC2=O)cc1 |  | inactive: 1.09%
COc1ccc(C(=O)NCCNC(=O)c2cc(OCC(F)(F)F)ccc2OCC(F)(F)F)cc1 | inconclusive: 0.651 µM [activator, full curve, poor fit] | 
CC(C)c1ccc(C2(C)NC(=O)N(CC(=O)N3CCN(C(=O)c4cccs4)CC3)C2=O)cc1 (stereo not given) | inconclusive: 6.51 µM [falling, single point] | 
CCN(C(=O)COC(=O)CCOc1cccc(C)c1)c1c(N)n(Cc2ccccc2)c(=O)[nH]c1=O |  | inconclusive: 16.8%
Cc1ccc(N(C)C(=O)C2CCCN2S(=O)(=O)c2ccc3c(c2)n(C)c(=O)c(=O)n3C)cc1 (stereo not given) |  | inconclusive: -23.5%
NC(=O)CC(NC(=O)Cc1cccc2ccccc12)c1ccc(NC2CC3CCC2C3)c([N+](=O)[O-])c1 (stereo not given) |  | inconclusive: -9.41%
